US6251627A (priority 1998, dated 2001)
Where two headings read alike, the source gives them in different places. Part of at least one peptide drawing is inferred or uncertain, most often the ends. Ends that are not written are not given here.

System: HLA B27
Test: peptide-induced thermostabilization of Class I on Drosophila cells (W6/32 cytofluorimetry)
Format: cell-based, human

FRIGCRHSR [HIV Vpr peptide]
thermal stabilization of surface HLA B27: stabilizes B27
thermal stabilization of surface HLA B27 (listed as FRIGCRHSR): binds and stabilizes B27
